SMILES strings stand for the structures.

For this series, the system named is CT DNA (calf thymus DNA). Put plainly: Absorption spectral titration with CT-DNA (Wolfe-Shimmer equation). The class given is binding. Particulars: π→π* band at ca. 270 nm on addition of CT DNA.
As for `CC(C)[P+]([Au-][S]C(=S)N(C)C)(C(C)C)C(C)C` [Complex 5, (i-Pr)3PAu(S2CN{Me}2)], the “Blue shift (nm)” value was 0 nm and the “Hyperchromism (%)” value is recorded as 20%.

For `CC[P+](CC)(CC)[Au-][S]C(=S)N(C)C` [Complex 2, (Et)3PAu(S2CN{Me}2)], the “Blue shift (nm)” value was 3 nm and the “Hyperchromism (%)” value came to 31%.

On to `CN(C)C(=S)[S][Au-][P+](C)(C)C` [Complex 1, (Me)3PAu(S2CN{Me}2)], for which the “Blue shift (nm)” value is on record as 2 nm and the “Hyperchromism (%)” value came to 22%.

Take `CCN(CC)C(=S)[S][Au-][P+](CC)(CC)CC` [Complex 4, (Et)3PAu(S2CN{Et}2)]: the “Blue shift (nm)” value was found to be 5 nm and the “Hyperchromism (%)” value is on record as 43%.

Regarding `CCN(CC)C(=S)[S][Au-][P+](C)(C)C` [Complex 3, (Me)3PAu(S2CN{Et}2)], the “Blue shift (nm)” value is listed as 3 nm and the “Hyperchromism (%)” value is given as 37%.

The record behind these values is US10273257B2, “Cancer cell-containing composition” (KING FAHD UNIVERSITY OF PETROLEUM AND MINERALS, priority 2016, dated 2019).
